The source of these data is article doi:10.1101/2021.05.01.442081.

Sequences of proteins named here, by UniProt entry; tags and fusion partners are left off.
UniProt Q9EQQ0: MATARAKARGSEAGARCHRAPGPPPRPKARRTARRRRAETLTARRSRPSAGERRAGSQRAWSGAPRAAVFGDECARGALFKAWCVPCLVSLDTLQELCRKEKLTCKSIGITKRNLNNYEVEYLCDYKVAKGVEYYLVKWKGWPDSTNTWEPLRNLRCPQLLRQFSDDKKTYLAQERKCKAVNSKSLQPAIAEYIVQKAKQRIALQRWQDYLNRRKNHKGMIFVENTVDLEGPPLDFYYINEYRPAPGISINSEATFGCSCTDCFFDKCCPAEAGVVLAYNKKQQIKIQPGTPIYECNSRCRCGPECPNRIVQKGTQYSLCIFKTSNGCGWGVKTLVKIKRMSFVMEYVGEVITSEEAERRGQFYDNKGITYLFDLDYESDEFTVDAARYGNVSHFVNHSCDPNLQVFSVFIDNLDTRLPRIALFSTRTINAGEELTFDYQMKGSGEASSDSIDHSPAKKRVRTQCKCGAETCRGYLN

One experiment addresses T1, GFP-SUV39H1 (UniProt O54864).
T1 sequence: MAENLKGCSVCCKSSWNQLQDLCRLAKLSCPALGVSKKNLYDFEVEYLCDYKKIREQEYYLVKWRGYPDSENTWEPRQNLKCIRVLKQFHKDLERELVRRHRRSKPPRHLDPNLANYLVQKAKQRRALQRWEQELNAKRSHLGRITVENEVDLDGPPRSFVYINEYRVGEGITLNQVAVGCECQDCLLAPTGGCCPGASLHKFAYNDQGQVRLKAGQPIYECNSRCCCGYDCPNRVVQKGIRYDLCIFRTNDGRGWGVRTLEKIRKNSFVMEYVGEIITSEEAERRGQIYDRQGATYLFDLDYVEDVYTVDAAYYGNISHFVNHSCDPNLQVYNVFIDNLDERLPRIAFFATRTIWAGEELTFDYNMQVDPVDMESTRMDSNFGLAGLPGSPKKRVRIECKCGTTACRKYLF
Nature of the experiment: co-IP.

A further experiment has as its target GFP-SUV39H2 (UniProt Q9EQQ0). Nature of the experiment: co-IP.

Results are given in words; binding and its absence hold for the method and conditions named. Binding seen in cells or lysates may run through a third protein. Some entries that bind do so weakly or less than the wild type. For some assays here: Tags and fused reporters may be left off the sequences shown.

B1: FOXD3 (endogenous, in Suv39h dn mouse embryonic stem cells) (protein, UniProt Q61060 1-465)
chain: MTLSGSGSASDMSGQTVLTAEDVDIDVVGEGDDGLEEKDSDAGCDSPAGPPDLRLDEADEGPPVSAHHGQSQPQALALPTEATGPGNDTGAPEADGCKGGEDAVTGGGGPGAGSGATGGLTPNKPKNSLVKPPYSYIALITMAILQSPQKKLTLSGICEFISNRFPYYREKFPAWQNSIRHNLSLNDCFVKIPREPGNPGKGNYWTLDPQSEDMFDNGSFLRRRKRFKRHQQEHLREQTALMMQSFGAYSLAAAAGAGPYGLHPAAAAGAYSHPAAAAAAAAAAALQYPYALPPVAPVLPPAVPLLPSGELGRKAAAFGSQLGPSLQLQLNTLGAAAAAAGTAGAAGTTSLIKSEPSARPSFSIENIIGAGSAAPGGSAGGGGSGGGAGGGGGSGGGGGAQSFLRPPGTVQSAALMATHQPLSLSRTTATIAPILSVPLSGQFLQPAASAAAAAAAAVQAKWPAQ
B1: the binding entry with GFP-SUV39H1 and with GFP-SUV39H2 was “binds” throughout.
